Measured values: the supplement of paper PMC12819154, “High-throughput peptide-centric local stability assay extends protein–ligand identification to membrane proteins, tissues and bacteria” (Nature Structural & Molecular Biology, 2025)
Some of the results follow. Most values lie at the level of the controls, where differences are scatter.

Sequences of proteins named here, by UniProt entry; tags and fusion partners are left off. A change or cut given only in a name is not applied to a line headed by its entry.
UniProt Q3TBL6: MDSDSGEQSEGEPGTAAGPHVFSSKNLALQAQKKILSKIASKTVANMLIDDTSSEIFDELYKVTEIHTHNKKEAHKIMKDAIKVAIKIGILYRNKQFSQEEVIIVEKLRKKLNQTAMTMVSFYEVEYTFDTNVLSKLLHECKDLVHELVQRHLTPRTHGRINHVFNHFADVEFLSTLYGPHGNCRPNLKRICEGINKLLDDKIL
UniProt Q3TCJ1, whole entry, looked up: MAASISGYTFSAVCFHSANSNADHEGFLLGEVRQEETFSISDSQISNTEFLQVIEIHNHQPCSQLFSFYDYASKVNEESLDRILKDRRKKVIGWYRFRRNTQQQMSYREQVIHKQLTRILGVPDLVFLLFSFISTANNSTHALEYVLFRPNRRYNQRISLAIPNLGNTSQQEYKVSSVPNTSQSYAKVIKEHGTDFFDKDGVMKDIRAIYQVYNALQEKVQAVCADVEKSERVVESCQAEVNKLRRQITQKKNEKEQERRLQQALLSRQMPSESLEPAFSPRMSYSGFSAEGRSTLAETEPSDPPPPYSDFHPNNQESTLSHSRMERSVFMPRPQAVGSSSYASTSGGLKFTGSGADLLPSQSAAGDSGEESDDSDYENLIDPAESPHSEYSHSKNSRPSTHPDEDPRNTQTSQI
UniProt Q3TYX3: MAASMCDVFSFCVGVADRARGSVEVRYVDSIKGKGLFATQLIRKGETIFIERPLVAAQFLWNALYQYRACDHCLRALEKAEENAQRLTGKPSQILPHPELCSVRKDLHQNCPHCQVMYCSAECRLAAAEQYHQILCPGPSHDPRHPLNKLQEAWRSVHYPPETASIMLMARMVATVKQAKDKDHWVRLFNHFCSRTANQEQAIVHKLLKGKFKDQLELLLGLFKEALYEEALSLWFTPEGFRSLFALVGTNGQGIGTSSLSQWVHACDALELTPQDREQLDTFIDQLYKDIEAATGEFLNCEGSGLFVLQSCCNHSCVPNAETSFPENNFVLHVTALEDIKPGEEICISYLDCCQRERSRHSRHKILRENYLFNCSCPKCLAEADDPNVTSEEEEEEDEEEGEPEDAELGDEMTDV
UniProt Q3U1V6: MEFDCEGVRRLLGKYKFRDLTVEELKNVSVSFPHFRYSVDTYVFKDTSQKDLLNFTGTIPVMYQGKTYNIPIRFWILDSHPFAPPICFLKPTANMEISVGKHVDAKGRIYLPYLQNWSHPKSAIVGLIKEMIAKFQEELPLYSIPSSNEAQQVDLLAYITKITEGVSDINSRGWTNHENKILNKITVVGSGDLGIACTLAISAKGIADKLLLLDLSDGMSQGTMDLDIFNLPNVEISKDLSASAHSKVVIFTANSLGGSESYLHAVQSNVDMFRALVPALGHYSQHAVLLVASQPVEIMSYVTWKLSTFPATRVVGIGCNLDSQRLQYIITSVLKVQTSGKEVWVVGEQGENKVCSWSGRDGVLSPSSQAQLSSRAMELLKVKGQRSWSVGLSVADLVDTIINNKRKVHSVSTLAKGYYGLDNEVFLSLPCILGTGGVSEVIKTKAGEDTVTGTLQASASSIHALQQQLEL
UniProt Q3TWL2: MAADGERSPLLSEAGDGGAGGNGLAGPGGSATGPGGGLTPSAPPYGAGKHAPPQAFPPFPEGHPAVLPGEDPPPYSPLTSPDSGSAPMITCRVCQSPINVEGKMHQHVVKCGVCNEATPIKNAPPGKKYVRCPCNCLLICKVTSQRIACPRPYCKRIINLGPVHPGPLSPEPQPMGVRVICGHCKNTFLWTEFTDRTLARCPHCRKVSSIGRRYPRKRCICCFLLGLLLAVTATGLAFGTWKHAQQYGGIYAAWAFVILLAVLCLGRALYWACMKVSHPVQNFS
UniProt Q08509, whole entry: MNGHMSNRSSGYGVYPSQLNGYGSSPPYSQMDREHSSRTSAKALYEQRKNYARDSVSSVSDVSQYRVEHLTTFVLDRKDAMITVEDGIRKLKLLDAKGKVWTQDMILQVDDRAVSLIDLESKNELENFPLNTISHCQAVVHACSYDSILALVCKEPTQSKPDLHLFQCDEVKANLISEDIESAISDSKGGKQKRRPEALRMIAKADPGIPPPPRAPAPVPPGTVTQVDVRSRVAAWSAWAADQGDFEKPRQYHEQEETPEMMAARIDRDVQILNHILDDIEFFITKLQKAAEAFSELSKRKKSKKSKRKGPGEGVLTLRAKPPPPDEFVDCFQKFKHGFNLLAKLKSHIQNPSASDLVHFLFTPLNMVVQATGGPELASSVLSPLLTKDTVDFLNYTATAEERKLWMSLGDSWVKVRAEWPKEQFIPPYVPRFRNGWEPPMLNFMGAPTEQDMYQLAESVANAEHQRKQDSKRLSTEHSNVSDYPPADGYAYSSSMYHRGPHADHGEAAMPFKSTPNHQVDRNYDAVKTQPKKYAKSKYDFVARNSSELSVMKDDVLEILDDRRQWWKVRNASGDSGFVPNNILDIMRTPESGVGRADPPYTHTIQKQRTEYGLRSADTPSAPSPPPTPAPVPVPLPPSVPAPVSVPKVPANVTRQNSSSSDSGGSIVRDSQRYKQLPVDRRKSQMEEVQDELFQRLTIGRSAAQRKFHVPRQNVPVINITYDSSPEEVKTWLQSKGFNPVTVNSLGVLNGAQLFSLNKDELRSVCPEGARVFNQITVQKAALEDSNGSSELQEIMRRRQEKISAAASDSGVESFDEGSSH
UniProt Q148W0: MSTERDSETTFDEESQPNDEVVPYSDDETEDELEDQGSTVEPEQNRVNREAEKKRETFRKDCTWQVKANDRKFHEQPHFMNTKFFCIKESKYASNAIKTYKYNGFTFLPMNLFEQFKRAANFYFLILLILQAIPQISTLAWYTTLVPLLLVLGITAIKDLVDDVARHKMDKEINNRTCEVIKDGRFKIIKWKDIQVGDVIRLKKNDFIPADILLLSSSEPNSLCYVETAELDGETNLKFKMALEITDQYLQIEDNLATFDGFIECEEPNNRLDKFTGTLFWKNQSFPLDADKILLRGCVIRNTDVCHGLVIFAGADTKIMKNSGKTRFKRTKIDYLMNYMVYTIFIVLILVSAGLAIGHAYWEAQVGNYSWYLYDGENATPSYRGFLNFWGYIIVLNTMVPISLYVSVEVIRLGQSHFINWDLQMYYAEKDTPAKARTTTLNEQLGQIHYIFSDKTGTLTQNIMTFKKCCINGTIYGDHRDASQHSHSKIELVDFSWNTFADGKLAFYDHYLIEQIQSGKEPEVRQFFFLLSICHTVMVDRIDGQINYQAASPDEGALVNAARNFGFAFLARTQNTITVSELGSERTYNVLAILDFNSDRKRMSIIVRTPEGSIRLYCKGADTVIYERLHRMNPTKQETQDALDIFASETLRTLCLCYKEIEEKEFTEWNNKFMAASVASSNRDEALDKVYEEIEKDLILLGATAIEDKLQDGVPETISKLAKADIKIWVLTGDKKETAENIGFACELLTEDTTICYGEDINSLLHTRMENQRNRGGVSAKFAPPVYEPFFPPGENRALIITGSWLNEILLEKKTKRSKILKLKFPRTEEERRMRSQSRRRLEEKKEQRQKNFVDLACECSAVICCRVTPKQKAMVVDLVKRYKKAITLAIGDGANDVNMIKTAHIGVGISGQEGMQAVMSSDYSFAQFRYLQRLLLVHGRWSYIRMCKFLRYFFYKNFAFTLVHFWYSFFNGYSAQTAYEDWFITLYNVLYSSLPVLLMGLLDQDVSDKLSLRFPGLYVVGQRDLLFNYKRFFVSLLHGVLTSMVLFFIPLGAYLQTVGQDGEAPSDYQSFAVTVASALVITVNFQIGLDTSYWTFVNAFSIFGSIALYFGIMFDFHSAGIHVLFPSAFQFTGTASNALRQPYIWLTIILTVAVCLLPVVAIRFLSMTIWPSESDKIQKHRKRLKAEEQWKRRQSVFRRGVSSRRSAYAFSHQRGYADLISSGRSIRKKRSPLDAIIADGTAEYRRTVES
UniProt Q3TN34: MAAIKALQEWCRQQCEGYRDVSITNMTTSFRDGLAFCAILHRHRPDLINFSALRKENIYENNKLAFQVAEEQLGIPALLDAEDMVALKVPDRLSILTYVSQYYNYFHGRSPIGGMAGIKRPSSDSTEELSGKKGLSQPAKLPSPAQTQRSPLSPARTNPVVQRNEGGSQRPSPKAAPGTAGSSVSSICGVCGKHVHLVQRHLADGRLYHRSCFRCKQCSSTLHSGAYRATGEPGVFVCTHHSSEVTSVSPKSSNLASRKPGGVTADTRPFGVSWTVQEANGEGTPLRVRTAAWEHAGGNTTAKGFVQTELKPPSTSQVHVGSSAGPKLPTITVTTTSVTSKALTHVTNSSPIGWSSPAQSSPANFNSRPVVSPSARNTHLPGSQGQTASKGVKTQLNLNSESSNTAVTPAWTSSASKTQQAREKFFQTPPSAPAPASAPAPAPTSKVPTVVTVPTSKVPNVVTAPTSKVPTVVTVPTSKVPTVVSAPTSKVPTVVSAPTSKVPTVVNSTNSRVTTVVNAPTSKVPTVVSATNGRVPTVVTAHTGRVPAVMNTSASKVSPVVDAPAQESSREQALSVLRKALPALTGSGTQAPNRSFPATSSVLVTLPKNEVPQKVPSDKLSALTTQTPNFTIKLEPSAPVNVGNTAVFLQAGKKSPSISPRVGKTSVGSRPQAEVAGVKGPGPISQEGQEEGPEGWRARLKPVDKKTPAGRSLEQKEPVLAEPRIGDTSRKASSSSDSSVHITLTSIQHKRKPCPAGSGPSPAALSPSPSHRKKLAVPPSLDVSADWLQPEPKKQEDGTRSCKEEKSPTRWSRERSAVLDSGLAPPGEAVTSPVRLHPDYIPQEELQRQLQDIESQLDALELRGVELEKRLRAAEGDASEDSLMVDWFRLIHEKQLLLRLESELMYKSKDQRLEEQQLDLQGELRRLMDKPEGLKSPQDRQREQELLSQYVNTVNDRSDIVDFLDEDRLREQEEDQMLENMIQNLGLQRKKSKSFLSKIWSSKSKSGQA
UniProt Q03249: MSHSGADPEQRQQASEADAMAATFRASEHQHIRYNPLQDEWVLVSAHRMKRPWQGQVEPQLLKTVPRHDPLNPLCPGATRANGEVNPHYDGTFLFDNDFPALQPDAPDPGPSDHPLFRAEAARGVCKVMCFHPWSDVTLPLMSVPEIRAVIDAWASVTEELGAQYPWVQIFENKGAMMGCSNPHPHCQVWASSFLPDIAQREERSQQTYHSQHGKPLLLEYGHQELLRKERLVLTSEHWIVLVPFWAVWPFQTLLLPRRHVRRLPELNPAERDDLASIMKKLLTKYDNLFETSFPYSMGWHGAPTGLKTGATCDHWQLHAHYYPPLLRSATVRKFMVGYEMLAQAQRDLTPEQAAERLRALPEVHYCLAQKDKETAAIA
UniProt Q3U155: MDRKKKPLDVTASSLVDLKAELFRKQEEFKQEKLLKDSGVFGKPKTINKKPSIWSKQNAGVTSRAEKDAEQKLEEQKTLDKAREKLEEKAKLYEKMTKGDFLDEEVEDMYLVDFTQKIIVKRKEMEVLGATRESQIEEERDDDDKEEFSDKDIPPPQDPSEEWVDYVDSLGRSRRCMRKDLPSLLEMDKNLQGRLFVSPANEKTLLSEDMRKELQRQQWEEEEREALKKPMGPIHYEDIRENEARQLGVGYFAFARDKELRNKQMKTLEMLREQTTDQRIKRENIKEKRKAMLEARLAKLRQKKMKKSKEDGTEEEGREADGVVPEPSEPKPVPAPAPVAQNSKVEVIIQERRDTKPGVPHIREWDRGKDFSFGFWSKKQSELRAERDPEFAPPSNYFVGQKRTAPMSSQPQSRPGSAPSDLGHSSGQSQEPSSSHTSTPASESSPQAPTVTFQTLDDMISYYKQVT

What follows are targets tested with CN[C@@H]1C[C@H]2O[C@@](C)([C@@H]1OC)n1c3ccccc3c3c4c(c5c6ccccc6n2c5c31)C(=O)NC4 [staurosporine] (assay: log2 fold change of tryptic peptide abundance, ligand vs vehicle (limited proteolysis) (log2 ratio); higher = more trypsin-susceptible (destabilized)). Settings: ligand concentration: 20 uM; sample: mouse liver crude lysate; replicate design: treated separately.

Target	log2 fold change
UniProt Q03717 (peptide sequence: KEQMNEELK, peptide start residue: 141)	0.0145
UniProt Q3TAP4 (peptide sequence: GQPPVLFKPQLVR, peptide start residue: 300)	0.107
UniProt Q3TBL6 (peptide sequence: NLALQAQKK, peptide start residue: 26)	-0.296
UniProt Q3TC93 (peptide sequence: APGATGLATR, peptide start residue: 139)	-0.0726
UniProt Q3THG9 (peptide sequence: SSPAWGGVVTLHRK, peptide start residue: 306)	-0.479
UniProt Q3TCJ1 (peptide sequence: PSTHPDEDPR, peptide start residue: 399)	-0.159
UniProt Q3TY92 (peptide sequence: QDVTLEPSPTTR, peptide start residue: 968)	-0.0187
UniProt Q06335 (peptide sequence: HYQHVLAVDPEKAAQMK, peptide start residue: 454)	-0.468
UniProt Q3SXD3 (peptide sequence: LQDFYDSTAGK, peptide start residue: 159)	-0.201
UniProt Q3U2I3 (peptide sequence: SISEPALLR, peptide start residue: 360)	0.451
UniProt Q04750 (peptide sequence: YIMLNPSSR, peptide start residue: 428)	0.18
UniProt Q1H9T6 (peptide sequence: TLSLASVDQEPR, peptide start residue: 153)	-0.119
UniProt Q3TYX3 (peptide sequence: TANQEQAIVHK, peptide start residue: 196)	-0.0392
UniProt Q3TRM8 (peptide sequence: ATIGPSGLHPGER, peptide start residue: 2)	0.133
UniProt Q3U1V6 (peptide sequence: LQYIITSVLK, peptide start residue: 326)	-0.235
UniProt Q3U1J4 (peptide sequence: TVPLYESPR, peptide start residue: 714)	0.251
UniProt Q3U2J5 (peptide sequence: RFESFNLFSVTEATKK, peptide start residue: 64)	-0.648
UniProt Q149L6 (peptide sequence: AAYSHQHQHR, peptide start residue: 223)	-0.919

Retrieved one by one from the list above (three):
Target	log2 fold change
UniProt Q3TAP4 (peptide sequence: GQPPVLFKPQLVR, peptide start residue: 300)	0.107
UniProt Q3TC93 (peptide sequence: APGATGLATR, peptide start residue: 139)	-0.0726
UniProt Q3TBL6 (peptide sequence: NLALQAQKK, peptide start residue: 26)	-0.296

More results:

Target	log2 fold change
UniProt Q3TWL2 (peptide sequence: MHQHVVK, peptide start residue: 104)	-0.506
UniProt Q08639 (peptide sequence: VFIDQNLSPGK, peptide start residue: 16)	-0.121
UniProt Q14AI6 (peptide sequence: LSPSQVAQMPLHLHLHR, peptide start residue: 293)	0.149
UniProt Q08509 (peptide sequence: ADPPYTHTIQK, peptide start residue: 597)	-0.17
UniProt Q3TX08 (peptide sequence: RKEPAEDPAQR, peptide start residue: 586)	-0.183
UniProt Q3TLI0 (peptide sequence: KTAEWLTK, peptide start residue: 639)	0.276
UniProt Q148W0 (peptide sequence: GYADLISSGR, peptide start residue: 1216)	-0.283
UniProt Q3U3C9 (peptide sequence: SFRPYHTAEDLR, peptide start residue: 221)	-0.6
UniProt Q3TN34 (peptide sequence: VPNVVTAPTSK, peptide start residue: 458)	0.387
UniProt Q03145 (peptide sequence: SEQLKPLK, peptide start residue: 580)	0.427
UniProt Q3U308 (peptide sequence: CVKCAEGLPVVVIR, peptide start residue: 28)	0.47
UniProt Q3U1Y4 (peptide sequence: TSGCQEEVGTPR, peptide start residue: 1041)	0.0711
UniProt Q14CH1 (peptide sequence: GPEPPAFQR, peptide start residue: 9)	0.136
UniProt Q03249 (peptide sequence: DLTPEQAAER, peptide start residue: 348)	-0.238
UniProt Q3TW96 (peptide sequence: AGQDHLLR, peptide start residue: 14)	-0.124
UniProt Q3U155 (peptide sequence: AEKDAEQKLEEQK, peptide start residue: 65)	0.321
UniProt Q08024 (peptide sequence: GWIDLHR, peptide start residue: 112)	0.262
UniProt Q3U0V2 (peptide sequence: VILSEAYTDPK, peptide start residue: 26)	-0.221
